Positions count from the first letter of the chain named. Numbers in names are those of the source. Results are given in words; binding and its absence hold for the method and conditions named. In cells and extracts the contact can be indirect. Some entries that bind do so weakly or less than the wild type. Sequences can lack the tags named with a protein.
B1: GFP10-CLN3^R334H (protein, UniProt Q13286 1-438)
chain: MGGCAGSRRRFSDSEGEETVPEPRLPLLDHQGAHWKNAVGFWLLGLCNNFSYVVMLSAAHDILSHKRTSGNQSHVDPGPTPIPHNSSSRFDCNSVSTAAVLLADILPTLVIKLLAPLGLHLLPYSPRVLVSGICAAGSFVLVAFSHSVGTSLCGVVFASISSGLGEVTFLSLTAFYPRAVISWWSSGTGGAGLLGALSYLGLTQAGLSPQQTLLSMLGIPALLLASYFLLLTSPEAQDPGGEEEAESAARQPLIRTEAPESKPGSSSSLSLRERWTVFKGLLWYIVPLVVVYFAEYFINQGLFELLFFWNTSLSHAQQYRWYQMLYQAGVFASHSSLRCCRIRFTWALALLQCLNLVFLLADVWFGFLPSIYLVFLIILYEGLLGGAAYVNTFHNIALETSDEHREFAMAATCISDTLGISLSGLLALPLHDFLCQLS
B2: GFP10-CLN3^V330F (protein, UniProt Q13286 1-438)
chain: B1 chain with V330F, H334R
B3: GFP10-CLN3^E295K (protein, UniProt Q13286 1-438)
chain: B1 chain with E295K, H334R
B4: GFP10-CLN3^L101P (protein, UniProt Q13286 1-438)
chain: B1 chain with L101P, H334R

Amino acid sequences for entries named in this document (tags omitted).
UniProt P51149: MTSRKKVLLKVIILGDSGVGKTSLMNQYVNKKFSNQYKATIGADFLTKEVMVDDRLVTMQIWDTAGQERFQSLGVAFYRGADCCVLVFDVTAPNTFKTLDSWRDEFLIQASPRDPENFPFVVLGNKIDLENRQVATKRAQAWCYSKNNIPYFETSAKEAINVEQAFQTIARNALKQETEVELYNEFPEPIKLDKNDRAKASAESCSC

biological target: RlucII-Rab7A (UniProt P51149); experiment: FRET or BRET

Binder	binding
B1	binds
B2	binds
B3	binds
B4	binds
